Measurements as given in article PMC12538886.

Target: T1, ACOX2 (source not told) (UniProt Q99424)
T1 sequence: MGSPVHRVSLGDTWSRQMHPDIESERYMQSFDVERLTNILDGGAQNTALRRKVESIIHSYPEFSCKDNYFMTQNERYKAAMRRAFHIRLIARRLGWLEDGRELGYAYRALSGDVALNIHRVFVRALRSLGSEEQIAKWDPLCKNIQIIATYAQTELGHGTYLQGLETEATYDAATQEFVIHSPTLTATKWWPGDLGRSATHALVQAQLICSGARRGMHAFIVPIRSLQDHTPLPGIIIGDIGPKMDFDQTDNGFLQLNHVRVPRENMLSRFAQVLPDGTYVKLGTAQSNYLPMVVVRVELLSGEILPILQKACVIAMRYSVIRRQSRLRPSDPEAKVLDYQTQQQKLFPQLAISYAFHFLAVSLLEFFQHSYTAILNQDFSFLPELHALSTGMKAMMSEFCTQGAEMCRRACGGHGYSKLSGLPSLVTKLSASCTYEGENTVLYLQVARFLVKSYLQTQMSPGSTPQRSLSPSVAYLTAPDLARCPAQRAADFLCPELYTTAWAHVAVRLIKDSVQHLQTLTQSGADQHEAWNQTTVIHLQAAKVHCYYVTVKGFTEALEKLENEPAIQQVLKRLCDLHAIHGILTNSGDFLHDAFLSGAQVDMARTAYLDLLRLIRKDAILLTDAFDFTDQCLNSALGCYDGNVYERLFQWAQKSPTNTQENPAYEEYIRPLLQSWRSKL
Assay: co-IP; truncated mutants of ACOX2 with MRE11 (Fig. 3I) and of MRE11 with ACOX2 (Fig. 3K); cells not given

binding: no binding
Substance: MRE11 truncated mutant lacking the RAD50-binding region (MD4) (domain or fragment)

No constants are given. Whether binding was seen depends on the method and setting. Binding seen in cells or lysates may run through a third protein.
